Measured values published in ChEMBL document CHEMBL1154791, “Constituents of Polyalthia longifolia var. pendula” (J Nat Prod, 2009).

Test system: A549
Assay: Cytotoxicity against human A549 cells after 72 hrs by MTT assay
Type: functional, cell-based
Details: A549, 72 h
Summary of the method: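 Cells grown in RPMI1640 with 10% FBS, penicillin and streptomycin; log-phase cells seeded per well (MCF-7 1.0 × 10^4; A549 4.5 × 10^3). After 24 h, exposed to various concentrations for 72 h.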

How did the IC50 turn out when COc1cccc2c1C(=O)c1c(O)c3c(c(O)c1C2=O)C[C@@](O)(C(=O)CO)C[C@@H]3O[C@H]1C[C@H](N)[C@H](O)[C@H](C)O1 [DOXORUBICIN] was run?
The IC50 was 837 nM.
